Measurements taken from patent US20210380680A1 (ZLLP, published 2021).
Substitutions are numbered along the chain they refer to. Names may count otherwise. No constants are given. Whether binding was seen depends on the method and setting. Some results given as binding are weak or reduced against the parent protein; the word gives no strength.

By UniProt entry, the sequences of proteins in these tests, tags left out. Where a name states a change or a piece, a line headed by the entry shows the natural chain unless it says otherwise. Chains listed by the source or under a name are the forms on record and can include a tag or linker.
CLDN18.2 endogenously expressed on SNU620 gastric cancer cells (P56856-2, form named): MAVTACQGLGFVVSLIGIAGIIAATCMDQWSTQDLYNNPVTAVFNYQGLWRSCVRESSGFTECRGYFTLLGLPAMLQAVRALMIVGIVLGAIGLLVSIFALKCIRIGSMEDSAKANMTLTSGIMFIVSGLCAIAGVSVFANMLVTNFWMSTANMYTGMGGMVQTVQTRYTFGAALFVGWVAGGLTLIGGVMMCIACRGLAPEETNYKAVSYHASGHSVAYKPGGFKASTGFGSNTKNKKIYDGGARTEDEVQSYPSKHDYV

B1: 413H9F8-VL-S32L (antibody, human IgG1, kappa, V domains shown)
VH: DVQLVESGGGSVQPGGSRRLSCAASGFTFSSFGMHWVRQAPEKGLEWVAYISSGSSPIYYVDKLKGRFTVSRDNPKNTLFLQMTSLRSEDTAMYYCARAGYAVRNALDYWGQGTSITVSS
VL: DIVMTQSPSSLSVSVGEKVTLSCKSSQSLLNLGNQKNYLAWYQQKTGQPPKLLIYGASTRESGVPDRFIGSGSGTDFTLTISSVQAEDLAVYFCQNDLFYPLTFGAGTKLELKR
B2: 413H9F8-VL-N31E (antibody, human IgG1, kappa, V domains shown)
VH: B1 VH
VL: B1 VL with N31E, L32S
notes: chimeric human IgG1, PTM site removed
B3: 413H9F8-VL-S32V (antibody, human IgG1, kappa, V domains shown)
VH: B1 VH
VL: B1 VL with L32V
notes: chimeric human IgG1, PTM site removed; also called 413H9F8-VL-32V; 413H9F8-VL-532V
B4: 364D1A7-VL-S32L (antibody, human IgG1, kappa, V domains shown)
VH: DVQLVESGGGLVQPGGSRKLSCAASGFTFSSFGMHWVRQAPEKGLEWVAYISSGSGSIYYADTVKGRFTLSRDNPKNTLFLQMTSLRSEDTAIYYCATSYYYGNALEYWGQGTSVTVSS
VL: DVVLTQSPSSLTVTEGEKVSMSCKSSQSLFNLGNQKNYLTWYQQKPGQTPTLLIYWASTRKSGVPDRFTGSGSGTDFTLTINTVQAEDLAVYYCQNVYSYPLTFGAGTKLDLKR
B5: 364D1A7-VL-N31E (antibody, human IgG1, kappa, V domains shown)
VH: B4 VH
VL: B4 VL with N31E, L32S
notes: as for B2
B6: 364D1A7-VL-S32V (antibody, human IgG1, kappa, V domains shown)
VH: B4 VH
VL: B4 VL with L32V
notes: chimeric human IgG1, PTM site removed; also called 364D1A7-VL-32V
B7: 282A12F3 (rat hybridoma antibody) (antibody, V domains shown)
VH: QVQLKESGPVLVQPSQTLSLTCTVAGFSLTSYNVYWVRQPPGKGLEWMGVIWNTGATRYNSTLKSRLSISKDTSKSQVFLKMNSLQTEDTATYYCARDSAMPAIPFAYWGQGTLVTVSS
VL: DIVMTQSPSSLAVSAGETVTINCKSSQSLFGSVRQKNYLAWYQQKPGQSPKLLIYLASTRESGVPDRFIGSGSGTDFTLTISSVQAEDLAKYYCQQYYDIPWTFGGGTKLELK
notes: purified rat IgG from hybridoma
B8: 413H9F8 (mouse hybridoma antibody) (antibody, V domains shown)
VH: B1 VH
VL: DIVMTQSPSSLSVSVGEKVTLSCKSSQSLLNSGNQKNYLAWYQQKTGQPPKLLIYGASTRESGVPDRFIGSGSGTDFTLTISSVQAEDLAVYFCQNDLFYPLTFGAGTKLELK
notes: purified mouse IgG from hybridoma
B9: 364D1A7 (mouse hybridoma antibody) (antibody, V domains shown)
VH: B4 VH
VL: DVVLTQSPSSLTVTEGEKVSMSCKSSQSLFNSGNQKNYLTWYQQKPGQTPTLLIYWASTRKSGVPDRFTGSGSGTDFTLTINTVQAEDLAVYYCQNVYSYPLTFGAGTKLDLK
notes: as for B8
B10: hz282-10 (antibody, V domains shown)
VH: QVQLQESGPGLVKPSETLSLTCTVSGFSLTSYNVYWIRQPPGKGLEWIGVIWNTGATRYNSALKSRVTISKDTSKNQVSLKLSSVTAADTAVYYCARDSAMPAIPFAYWGQGTLVTVSS
VL: DIQMTQSPSSLSASVGDRVTITCKSSQSLFGSVRQKNYLAWYQQKPGKAPKLLIYLASTRESGVPSRFSGSGSGTDFTLTISSLQPEDFATYYCQQYYDIPWTFGGGTKVEIK
notes: humanized IgG; constant regions not specified
B11: hz282-8 (antibody, V domains shown)
VH: B10 VH with S25A, N76S
VL: B7 VL with S9D, A15L, T18R, V19A, I69S, V84L, L89V, L110V, L112I
notes: as for B10
B12: hz282-12 (antibody, V domains shown)
VH: B10 VH with S25A, N76S
VL: B10 VL
notes: as for B10
B13: hz282-15 (antibody, V domains shown)
VH: B10 VH with N76S
VL: B10 VL with A49S, S66D, T91K
notes: as for B10
B14: hz282-3 (antibody, V domains shown)
VH: B10 VH with N76S
VL: DIVMTQSPDSLAVSLGERATINCKSSQSLFGSVRQKNYLAWYQQKPGQPPKLLIYLASTRESGVPDRFSGSGSGTDFTLTISSLQAEDVAVYYCQQYYDIPWTFGGGTKVEIK
notes: as for B10
B15: hz282-4 (antibody, V domains shown)
VH: B10 VH with S25A, N76S
VL: B14 VL
notes: as for B10
B16: hz282-19 (antibody, V domains shown)
VH: B10 VH with N76S
VL: B10 VL with Q3V, T22N, A49S, S66D, T91K
notes: as for B10

What follows are binders tested against CLDN18.2 endogenously expressed on SNU620 gastric cancer cells (UniProt P56856) (assay: FACS on SNU620 cells).

binding, binds:
B1, B2, B3, B4, B5, B6, B7

These binders were tested against CLDN18.2 endogenously expressed on SNU620 gastric cancer cells (UniProt P56856) (assay: FACS on SNU620 cells, 10 ug/mL).

binding, binds:
B8, B9

These binders were tested against CLDN18.2 endogenously expressed on SNU620 gastric cancer cells (UniProt P56856) (assay: FACS on SNU620 cells @10 ug/ml).

binding, binds:
B8, B9, B7

Each binder was assayed against human Claudin 18.2 (CLDN18.2) (human) (UniProt P56856) (assay: FACS on CHO-CLDN18.2 cells).

binding, binds:
B10, B11, B12, B13, B14, B15

What follows are binders tested against human Claudin 18.2 (CLDN18.2) (human, UniProt P56856-2 1-261) (assay: FACS on CHO-CLDN18.2 cells).

binding, binds:
B16

Each binder was assayed against CLDN18.2 endogenously expressed on SNU620 gastric cancer cells (UniProt P56856) (assay: FACS).

binding, binds:
B8, B9, B7
